Source: the supplement of paper PMC12067093, “Discovery and optimisation of a covalent ligand for TRIM25 and its application to targeted protein ubiquitination” (Chemical Science, 2025)
Some of the results follow.

The chains behind the UniProt entries cited, without tags or fusion partners. Where a name states a change or a piece, a line headed by the entry shows the natural chain unless it says otherwise.
UniProt P08754, whole entry, looked up: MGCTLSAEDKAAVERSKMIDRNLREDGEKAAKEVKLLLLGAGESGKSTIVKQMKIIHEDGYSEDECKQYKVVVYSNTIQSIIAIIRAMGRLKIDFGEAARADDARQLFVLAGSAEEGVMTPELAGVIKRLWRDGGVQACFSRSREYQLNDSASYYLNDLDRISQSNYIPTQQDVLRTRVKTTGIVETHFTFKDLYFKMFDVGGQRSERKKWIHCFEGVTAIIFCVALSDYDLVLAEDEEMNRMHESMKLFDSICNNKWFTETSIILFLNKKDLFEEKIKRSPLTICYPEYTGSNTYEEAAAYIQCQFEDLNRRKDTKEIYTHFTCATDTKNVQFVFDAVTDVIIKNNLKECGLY
UniProt P06280: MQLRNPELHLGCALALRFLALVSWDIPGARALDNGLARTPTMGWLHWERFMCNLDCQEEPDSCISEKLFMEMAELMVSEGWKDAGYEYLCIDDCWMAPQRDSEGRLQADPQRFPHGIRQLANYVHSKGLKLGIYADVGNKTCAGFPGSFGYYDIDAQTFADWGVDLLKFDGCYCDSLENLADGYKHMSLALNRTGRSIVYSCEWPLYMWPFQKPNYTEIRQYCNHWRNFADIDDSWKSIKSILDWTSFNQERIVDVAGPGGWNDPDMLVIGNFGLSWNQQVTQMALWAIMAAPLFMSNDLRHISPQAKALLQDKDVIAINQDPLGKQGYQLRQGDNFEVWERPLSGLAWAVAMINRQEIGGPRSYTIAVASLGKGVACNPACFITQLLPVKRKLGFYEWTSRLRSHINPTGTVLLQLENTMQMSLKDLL
UniProt Q8N335: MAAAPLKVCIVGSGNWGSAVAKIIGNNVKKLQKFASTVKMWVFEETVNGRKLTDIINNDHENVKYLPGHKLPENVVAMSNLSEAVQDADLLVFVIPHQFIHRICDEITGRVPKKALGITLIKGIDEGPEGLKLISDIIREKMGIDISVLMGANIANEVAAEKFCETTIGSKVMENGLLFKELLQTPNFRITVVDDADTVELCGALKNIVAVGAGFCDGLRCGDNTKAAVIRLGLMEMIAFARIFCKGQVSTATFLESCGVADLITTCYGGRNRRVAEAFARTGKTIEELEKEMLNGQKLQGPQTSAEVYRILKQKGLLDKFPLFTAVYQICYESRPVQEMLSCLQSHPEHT
UniProt Q96IJ6: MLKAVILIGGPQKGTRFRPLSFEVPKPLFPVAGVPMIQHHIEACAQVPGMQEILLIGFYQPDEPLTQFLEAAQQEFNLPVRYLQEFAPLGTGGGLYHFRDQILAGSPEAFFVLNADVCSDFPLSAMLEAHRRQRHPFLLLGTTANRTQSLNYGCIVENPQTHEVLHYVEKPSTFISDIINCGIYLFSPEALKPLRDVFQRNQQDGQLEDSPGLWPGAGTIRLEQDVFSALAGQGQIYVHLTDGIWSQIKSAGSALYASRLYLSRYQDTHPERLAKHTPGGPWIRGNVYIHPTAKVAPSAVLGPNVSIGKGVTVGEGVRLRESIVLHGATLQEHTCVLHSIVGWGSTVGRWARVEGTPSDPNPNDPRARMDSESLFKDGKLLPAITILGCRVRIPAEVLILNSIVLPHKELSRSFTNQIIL
UniProt Q3T8J9: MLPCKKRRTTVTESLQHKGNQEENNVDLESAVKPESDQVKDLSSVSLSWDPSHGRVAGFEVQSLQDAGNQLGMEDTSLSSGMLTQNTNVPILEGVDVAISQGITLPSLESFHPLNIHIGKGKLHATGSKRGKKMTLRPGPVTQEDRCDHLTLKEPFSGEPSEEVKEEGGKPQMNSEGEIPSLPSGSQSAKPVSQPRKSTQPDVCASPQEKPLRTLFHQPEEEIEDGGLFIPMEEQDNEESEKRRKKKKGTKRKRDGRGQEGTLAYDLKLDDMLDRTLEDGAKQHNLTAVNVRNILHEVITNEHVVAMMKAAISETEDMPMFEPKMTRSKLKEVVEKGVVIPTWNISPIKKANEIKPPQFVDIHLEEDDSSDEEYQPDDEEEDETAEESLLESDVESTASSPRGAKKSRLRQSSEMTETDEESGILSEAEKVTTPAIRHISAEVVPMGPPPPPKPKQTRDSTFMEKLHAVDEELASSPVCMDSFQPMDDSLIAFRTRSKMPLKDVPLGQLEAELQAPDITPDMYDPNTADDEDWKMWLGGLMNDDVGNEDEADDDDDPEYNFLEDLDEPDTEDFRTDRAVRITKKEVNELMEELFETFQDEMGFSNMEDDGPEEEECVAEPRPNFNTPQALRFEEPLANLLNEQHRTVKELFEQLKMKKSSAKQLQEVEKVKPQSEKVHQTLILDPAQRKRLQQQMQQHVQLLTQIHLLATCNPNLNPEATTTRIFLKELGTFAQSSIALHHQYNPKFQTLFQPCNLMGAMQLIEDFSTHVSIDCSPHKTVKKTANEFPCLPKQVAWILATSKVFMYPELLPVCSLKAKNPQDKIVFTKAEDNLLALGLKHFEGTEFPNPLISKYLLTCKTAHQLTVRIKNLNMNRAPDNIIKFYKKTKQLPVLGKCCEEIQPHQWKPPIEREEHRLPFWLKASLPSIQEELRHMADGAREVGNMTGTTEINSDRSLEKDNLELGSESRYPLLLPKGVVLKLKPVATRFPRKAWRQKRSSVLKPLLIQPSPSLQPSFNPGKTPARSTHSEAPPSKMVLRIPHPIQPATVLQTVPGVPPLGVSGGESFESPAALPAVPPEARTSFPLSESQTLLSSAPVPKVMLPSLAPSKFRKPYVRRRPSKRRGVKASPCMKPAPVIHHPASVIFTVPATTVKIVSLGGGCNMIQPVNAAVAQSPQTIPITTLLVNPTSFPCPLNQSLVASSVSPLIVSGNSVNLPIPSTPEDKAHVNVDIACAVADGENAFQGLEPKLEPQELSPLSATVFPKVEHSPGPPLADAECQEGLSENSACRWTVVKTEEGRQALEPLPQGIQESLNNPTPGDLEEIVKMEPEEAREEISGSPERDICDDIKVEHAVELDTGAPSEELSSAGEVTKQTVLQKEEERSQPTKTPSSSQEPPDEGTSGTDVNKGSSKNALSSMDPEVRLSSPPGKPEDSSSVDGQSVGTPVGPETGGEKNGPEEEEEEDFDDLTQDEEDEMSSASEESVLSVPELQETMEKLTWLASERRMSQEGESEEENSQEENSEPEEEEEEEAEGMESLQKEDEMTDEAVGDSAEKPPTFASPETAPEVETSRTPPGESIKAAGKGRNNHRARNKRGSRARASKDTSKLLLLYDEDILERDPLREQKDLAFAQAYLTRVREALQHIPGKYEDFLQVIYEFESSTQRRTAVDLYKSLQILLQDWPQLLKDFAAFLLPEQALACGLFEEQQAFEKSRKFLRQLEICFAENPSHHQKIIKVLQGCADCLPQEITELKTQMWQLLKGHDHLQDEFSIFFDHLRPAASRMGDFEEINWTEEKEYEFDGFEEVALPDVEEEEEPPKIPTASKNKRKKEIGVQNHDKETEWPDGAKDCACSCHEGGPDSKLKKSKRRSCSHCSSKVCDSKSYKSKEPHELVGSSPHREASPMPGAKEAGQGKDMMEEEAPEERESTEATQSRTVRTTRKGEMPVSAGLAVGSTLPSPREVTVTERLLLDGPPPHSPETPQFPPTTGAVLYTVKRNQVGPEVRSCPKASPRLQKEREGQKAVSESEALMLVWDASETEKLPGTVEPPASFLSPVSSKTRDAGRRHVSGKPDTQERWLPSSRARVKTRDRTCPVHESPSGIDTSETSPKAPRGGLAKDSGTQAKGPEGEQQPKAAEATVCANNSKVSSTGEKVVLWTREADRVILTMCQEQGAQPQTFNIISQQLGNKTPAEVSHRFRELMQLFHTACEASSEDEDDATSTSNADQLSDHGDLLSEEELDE
UniProt Q9BYB4: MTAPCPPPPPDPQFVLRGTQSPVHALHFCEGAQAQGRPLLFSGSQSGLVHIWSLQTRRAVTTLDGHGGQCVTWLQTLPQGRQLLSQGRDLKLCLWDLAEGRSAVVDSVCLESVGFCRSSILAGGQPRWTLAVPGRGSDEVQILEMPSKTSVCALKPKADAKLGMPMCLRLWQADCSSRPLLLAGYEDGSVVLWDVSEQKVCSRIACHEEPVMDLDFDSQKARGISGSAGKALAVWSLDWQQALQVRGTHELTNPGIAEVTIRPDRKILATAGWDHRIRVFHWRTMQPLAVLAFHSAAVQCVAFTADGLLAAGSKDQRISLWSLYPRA

Compound: CC1Cc2ccccc2N1C(=O)C1CCCN(C1)C(=O)CCl (mixture of isomers) [TRIM25 ligand 11 (diastereomer mixture)]
Assay: probe-labelled cysteine peptide fold change vs DMSO (competition) (log2 fold change); higher = less target engagement (more negative = stronger competition)
Conditions: THP-1, incubation time: 4 h
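Also: competitive chemoproteomic profiling in live THP-1 cells with an iodoacetamide desthiobiotin (IA-DTB) probe, comparing probe-labelled peptide intensities in compound-treated cells against DMSO-treated controls.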

GNAI3_P08754_139_DGGVQACFSR (UniProt P08754)
probe-labelled cysteine peptide fold change (10 µM): 0.0309
probe-labelled cysteine peptide fold change (50 µM): -0.0537

GORASP2_Q9H8Y8_173_LYVYNTDTDNCR (UniProt Q9H8Y8)
probe-labelled cysteine peptide fold change (10 µM): 0.0137
probe-labelled cysteine peptide fold change (50 µM): 0.0227

GLA_P06280_56_FMCNLDCQEEPDSCISEK (UniProt P06280)
probe-labelled cysteine peptide fold change (10 µM): 0.0477
probe-labelled cysteine peptide fold change (50 µM): -0.166

GPD1L_Q8N335_216_NIVAVGAGFCDGLR (UniProt Q8N335)
probe-labelled cysteine peptide fold change (10 µM): 0.138
probe-labelled cysteine peptide fold change (50 µM): 0.0362

GMPPA_Q96IJ6_335_ESIVLHGATLQEHTCVLHSIVGWGSTVGR (UniProt Q96IJ6)
probe-labelled cysteine peptide fold change (10 µM): -0.0429
probe-labelled cysteine peptide fold change (50 µM): -0.0368

GLA_P06280_223_QYCNHWR (UniProt P06280)
probe-labelled cysteine peptide fold change (10 µM): 0.0474
probe-labelled cysteine peptide fold change (50 µM): -0.0618

GON4L_Q3T8J9_2140_AAEATVCANNSK (UniProt Q3T8J9)
probe-labelled cysteine peptide fold change (10 µM): -0.06
probe-labelled cysteine peptide fold change (50 µM): -0.454

GNB1L_Q9BYB4_206_IACHEEPVMDLDFDSQK (UniProt Q9BYB4)
probe-labelled cysteine peptide fold change (10 µM): -0.114
probe-labelled cysteine peptide fold change (50 µM): -0.153
